According to the supplement of paper PMC4635364:
Structures can show the parent of a compound that is named as a salt. Some of the results follow. Repeats in this data set agree poorly, so a single value says little.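 Cells: ReNCell VM human fetal ventral-midbrain neural progenitors, differentiated mitogen-free. Blinded raters compared doublecortin-stained (early neurons) or tyrosine hydroxylase-stained (dopaminergic neurons) images with untreated wells, where 0 means no change. After repeats and both raters were averaged, compounds scoring 2 or above became hits for retesting.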

Tests used:
[1] = system: ReNCell VM; assay: neuronal differentiation score (DCX+ cell fraction vs untreated, manual image score) (score (-3 to 3)); higher = more neuronal differentiation; conditions: 2 uM, 2 weeks
[2] = system: ReNCell VM; assay: dopaminergic neuron differentiation score (TH+ cell fraction vs untreated, manual image score) (score (0 to 3)); higher = more TH+ dopaminergic neuron differentiation; conditions: 2 uM, 4 weeks, BDNF 10 ng/ml + GDNF 10 ng/ml

Clc1cccc(Cl)c1NC1=NCCN1 [Clonidine hydrochloride]
inactive: neuronal differentiation score ([1]; library: LOPAC) 0 | neuronal differentiation score ([1]; library: Prestwick) 0 | neuronal differentiation score ([1]; library: Tocriscreen) 0 | dopaminergic neuron differentiation score ([2]; library: LOPAC) 0 | dopaminergic neuron differentiation score ([2]; library: Prestwick) 0 | dopaminergic neuron differentiation score ([2]; library: Tocriscreen) 0

CCOC(=O)C1=C(C)NC(C)=C(C(=O)OC)C1c1cccc([N+](=O)[O-])c1 (configuration not stated) [Nitrendipine]
inactive: neuronal differentiation score ([1]; library: LOPAC) 0 | neuronal differentiation score ([1]; library: Prestwick) 0 | neuronal differentiation score ([1]; library: Tocriscreen) 0 | dopaminergic neuron differentiation score ([2]; library: LOPAC) 0 | dopaminergic neuron differentiation score ([2]; library: Prestwick) 0 | dopaminergic neuron differentiation score ([2]; library: Tocriscreen) 0

CCCCOc1cc(CC2CNC(=O)N2)ccc1OC (configuration not stated)
inactive: neuronal differentiation score ([1]; library: LOPAC) 0 | neuronal differentiation score ([1]; library: Spectrum) 0 | neuronal differentiation score ([1]; library: Tocriscreen) 0 | dopaminergic neuron differentiation score ([2]; library: LOPAC) 0 | dopaminergic neuron differentiation score ([2]; library: Spectrum) 0 | dopaminergic neuron differentiation score ([2]; library: Tocriscreen) 0

OCCN(CCO)c1nc(N2CCCCC2)c2nc(N(CCO)CCO)nc(N3CCCCC3)c2n1 [Dipyridamole]
inactive: neuronal differentiation score ([1]; library: LOPAC) 0 | neuronal differentiation score ([1]; library: Prestwick) 0 | neuronal differentiation score ([1]; library: Tocriscreen) 0 | dopaminergic neuron differentiation score ([2]; library: LOPAC) 0 | dopaminergic neuron differentiation score ([2]; library: Prestwick) 0 | dopaminergic neuron differentiation score ([2]; library: Tocriscreen) 0

O=C(NCCNCC(O)COc1ccc(O)cc1)N1CCOCC1 (configuration not stated) [Xamoterol hemifumarate]
inactive: neuronal differentiation score ([1]; library: LOPAC) 0 | neuronal differentiation score ([1]; library: Prestwick) 0 | neuronal differentiation score ([1]; library: Tocriscreen) 0 | dopaminergic neuron differentiation score ([2]; library: LOPAC) 0 | dopaminergic neuron differentiation score ([2]; library: Prestwick) 0 | dopaminergic neuron differentiation score ([2]; library: Tocriscreen) 0

CC1=C(/C=C/C(C)=C/C=C/C(C)=C/C(=O)O)C(C)(C)CCC1 [Retinoic acid]
inactive: neuronal differentiation score ([1]; library: LOPAC) 1 | neuronal differentiation score ([1]; library: Prestwick) 1 | neuronal differentiation score ([1]; library: Tocriscreen) 1 | dopaminergic neuron differentiation score ([2]; library: LOPAC) 0 | dopaminergic neuron differentiation score ([2]; library: Prestwick) 0 | dopaminergic neuron differentiation score ([2]; library: Tocriscreen) 0

CC/C(=C(\c1ccccc1)c1ccc(OCCN(C)C)cc1)c1ccccc1 [Tamoxifen citrate]
inactive: neuronal differentiation score ([1]; library: LOPAC) 0 | neuronal differentiation score ([1]; library: Prestwick) 0 | neuronal differentiation score ([1]; library: Tocriscreen) 0 | dopaminergic neuron differentiation score ([2]; library: LOPAC) 0 | dopaminergic neuron differentiation score ([2]; library: Prestwick) 0 | dopaminergic neuron differentiation score ([2]; library: Tocriscreen) 0
